# Data from PMC13375126.
# The chains behind the UniProt entries cited, without tags or fusion partners. Where a name states a change or a piece, a line headed by the entry shows the natural chain unless it says otherwise.
# UniProt A0A640KW67: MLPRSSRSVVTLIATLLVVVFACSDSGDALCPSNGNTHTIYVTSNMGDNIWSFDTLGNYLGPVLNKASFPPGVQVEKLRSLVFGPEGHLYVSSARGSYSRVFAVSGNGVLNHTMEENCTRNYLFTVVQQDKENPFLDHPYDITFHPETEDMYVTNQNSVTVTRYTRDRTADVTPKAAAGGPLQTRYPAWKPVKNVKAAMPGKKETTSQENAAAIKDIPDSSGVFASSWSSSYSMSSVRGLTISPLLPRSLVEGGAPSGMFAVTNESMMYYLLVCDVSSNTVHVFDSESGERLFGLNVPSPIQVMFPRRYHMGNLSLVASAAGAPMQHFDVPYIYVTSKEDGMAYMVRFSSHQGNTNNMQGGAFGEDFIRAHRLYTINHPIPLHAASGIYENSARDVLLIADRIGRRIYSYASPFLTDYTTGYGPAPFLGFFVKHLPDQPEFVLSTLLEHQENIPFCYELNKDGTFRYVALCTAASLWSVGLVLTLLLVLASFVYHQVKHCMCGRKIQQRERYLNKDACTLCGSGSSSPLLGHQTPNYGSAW
# UniProt A0A640KN15: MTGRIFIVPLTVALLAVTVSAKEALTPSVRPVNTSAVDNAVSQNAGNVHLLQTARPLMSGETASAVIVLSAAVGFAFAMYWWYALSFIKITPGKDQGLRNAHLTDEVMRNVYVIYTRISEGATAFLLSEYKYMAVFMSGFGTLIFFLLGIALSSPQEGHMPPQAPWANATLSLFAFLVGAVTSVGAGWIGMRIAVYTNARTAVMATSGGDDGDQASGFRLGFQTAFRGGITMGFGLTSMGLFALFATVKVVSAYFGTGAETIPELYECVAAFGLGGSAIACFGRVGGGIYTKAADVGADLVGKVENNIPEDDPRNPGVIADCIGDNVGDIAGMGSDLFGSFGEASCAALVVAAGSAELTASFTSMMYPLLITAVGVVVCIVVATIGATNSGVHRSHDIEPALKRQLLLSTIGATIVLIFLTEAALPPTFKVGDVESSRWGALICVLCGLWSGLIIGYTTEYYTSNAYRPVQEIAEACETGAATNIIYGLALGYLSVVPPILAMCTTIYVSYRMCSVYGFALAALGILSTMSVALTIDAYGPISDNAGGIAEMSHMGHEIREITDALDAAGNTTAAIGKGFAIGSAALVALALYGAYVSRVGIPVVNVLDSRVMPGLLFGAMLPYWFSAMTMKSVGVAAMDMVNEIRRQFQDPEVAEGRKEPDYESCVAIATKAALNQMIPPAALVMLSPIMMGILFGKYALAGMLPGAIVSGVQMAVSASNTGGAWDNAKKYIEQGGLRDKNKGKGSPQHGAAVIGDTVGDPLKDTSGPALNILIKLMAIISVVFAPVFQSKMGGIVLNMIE
# No constants are given. Whether binding was seen depends on the method and setting. Binding seen in cells or lysates may run through a third protein. A result given as binding can be weak or reduced; the word gives no strength.
# Biological target: T1, mNG-LtVtc4 (L. tarentolae)
# T1 sequence: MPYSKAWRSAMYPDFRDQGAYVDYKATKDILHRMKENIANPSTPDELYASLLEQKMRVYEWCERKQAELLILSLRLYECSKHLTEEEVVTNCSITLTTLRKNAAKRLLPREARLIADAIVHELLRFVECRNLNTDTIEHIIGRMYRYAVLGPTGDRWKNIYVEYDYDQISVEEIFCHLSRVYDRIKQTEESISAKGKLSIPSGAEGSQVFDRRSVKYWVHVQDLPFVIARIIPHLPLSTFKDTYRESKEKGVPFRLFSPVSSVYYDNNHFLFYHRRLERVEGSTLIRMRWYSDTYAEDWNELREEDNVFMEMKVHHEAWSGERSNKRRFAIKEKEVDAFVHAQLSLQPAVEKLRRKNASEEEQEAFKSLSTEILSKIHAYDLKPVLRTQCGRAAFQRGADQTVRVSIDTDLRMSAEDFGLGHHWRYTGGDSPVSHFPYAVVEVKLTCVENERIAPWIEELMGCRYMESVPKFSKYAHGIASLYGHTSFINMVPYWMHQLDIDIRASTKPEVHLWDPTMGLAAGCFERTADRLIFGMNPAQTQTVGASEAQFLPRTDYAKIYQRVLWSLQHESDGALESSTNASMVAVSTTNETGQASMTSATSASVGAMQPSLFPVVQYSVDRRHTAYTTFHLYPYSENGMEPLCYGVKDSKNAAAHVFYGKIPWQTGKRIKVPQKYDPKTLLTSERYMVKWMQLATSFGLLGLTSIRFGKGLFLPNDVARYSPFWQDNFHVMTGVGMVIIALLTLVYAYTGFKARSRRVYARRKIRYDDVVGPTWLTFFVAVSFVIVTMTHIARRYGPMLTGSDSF
# Assay: pull-down; mNeonGreen-Trap agarose beads capture mNG-LtVtc4 from 1% DDM-solubilised lysate of L. tarentolae that also express the mCh-tagged candidate; overnight, 4 °C; 50 mM HEPES pH 7.5, 150 mM NaCl, 1 mM IP6, 1 mM DTT; washes with 0.05% DDM; SDS-PAGE with in-gel fluorescence
row,Substance,binding
1,mCh-IP3R (L. tarentolae),no binding
2,mCh-LtVBP2 (from UniProt A0A640KW67),binds
3,mCh-LtmPPase (from UniProt A0A640KN15),no binding
